Experimental data taken from the supplement of paper PMC3334620.
Over roughly 33,000 sequences, “E-score (-0.5 to 0.5)” has its median near -0.0059; the highest 2% begin near 0.26. The list shows a part of the results.

The sequences below were run against T1, Cin5 (UniProt P40917) (assay: PBM E-score (8-mer binding enrichment) (E-score (-0.5 to 0.5)); higher = stronger / more preferred TF binding). Conditions: protein concentration: 100 nM; construct: GST-full length.
T1 sequence: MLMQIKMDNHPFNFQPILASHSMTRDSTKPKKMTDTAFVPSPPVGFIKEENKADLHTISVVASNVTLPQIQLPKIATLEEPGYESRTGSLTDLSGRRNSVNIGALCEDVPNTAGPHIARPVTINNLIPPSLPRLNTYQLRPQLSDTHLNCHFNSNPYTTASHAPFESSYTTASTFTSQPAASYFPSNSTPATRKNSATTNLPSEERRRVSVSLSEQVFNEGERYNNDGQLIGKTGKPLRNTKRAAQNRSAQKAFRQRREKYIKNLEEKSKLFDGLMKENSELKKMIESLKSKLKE
Summary of the method: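 E-scores (a modified Wilcoxon-Mann-Whitney statistic) were assigned by the Universal PBM Analysis Suite to every ungapped eight-base word pooled with its reverse complement. The input came from universal all-10-mer Agilent arrays made double-stranded by primer extension and probed with GST-tagged yeast transcription factors at about 100-200 nM. Fluorescent anti-GST detected bound protein, and masliner normalised the scans.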

| Sequence | PBM E-score |
| --- | --- |
| TAAGCGCA | 0.0681 |
| ACCAATGG | 0.0227 |
| CCCCAGAA | -0.0585 |
| CACCCACC | 0.0942 |
| AAGGTATA | -0.0348 |
| ATCCGCGA | 0.015 |
| TATGGCCA | 0.0804 |
| CTTAACTC | 0.145 |
| AGTCGACA | 0.122 |
| CCTCGAAA | 0.069 |
| AAGGAGTA | 0.0703 |
| CGACGTGC | 0.0086 |
| ATCGTCTA | -0.0715 |
| CGAACTTA | 0.0234 |
| AATTGTCG | 0.00659 |
| CCAAGCCG | -0.186 |
| ACCAGCAC | 0.0389 |
| GGCGATGA | -0.0302 |
| AGCCCGAG | -0.211 |
| AGAGCTCT | -0.222 |
| CGGCCAGC | -0.0822 |
| AATAAAGT | 0.231 |
| AGAGAATG | 0.145 |
| TCTATCAA | 0.165 |
| GCTATGCC | -0.272 |

| Sequence | PBM E-score |
| --- | --- |
| CCCTGCTA | -0.225 |
| ACTACCAG | -0.086 |
| AGTCATGG | 0.0852 |
| CGTGTGGC | -0.259 |
| CTCACACC | -0.0528 |
| CATTGGTA | -0.0428 |
| ATGTCCTC | -0.0332 |
| CGCCTATC | 0.0575 |
| GCTCTTGA | -0.00938 |
| ATCGCCAA | -0.0749 |
| ACCATGCG | -0.0407 |
| GGGTCGCA | -0.122 |
| ATCCATTA | 0.052 |
| AGATTTGC | 0.24 |
| CGCATCCG | -0.0974 |
| AACGCATG | 0.091 |
| ATACATCG | 0.161 |
| ACGACTAG | 0.0153 |
| CGCCCGCC | -0.0134 |
| ACGGGGCG | 0.0376 |
| CATGGCGC | 0.00485 |
| CACGACGC | -0.163 |
| AAACTCCA | 0.0269 |
| ATACAATC | 0.162 |
| AGTGCAGA | -0.078 |

| Sequence | PBM E-score |
| --- | --- |
| AACAAGTT | 0.0368 |
| ACTCCTCA | -0.175 |
| AGGTCGTA | 0.109 |
| AGTACAGC | -0.107 |
| AAAACCGC | 0.0398 |
| AACGAGCT | 0.037 |
| AAACCTTC | -0.0587 |
| CCCGACTC | -0.124 |
| AGTGGAAG | -0.172 |
| ATGAACTG | 0.125 |
| GATTGTTA | 0.0642 |
| CCAGTAGC | -0.0376 |
| CCTCAGCG | -0.00286 |
| CACCCTCC | 0.0308 |
| TAACTACA | 0.0764 |
| CAAAACAC | 0.0504 |
| CTGCGCAA | 0.104 |
| CGATCCGA | 0.108 |
| ACGTAGAG | -0.2 |
| CTGTATGA | -0.0616 |
| ACCATTCT | -0.0151 |
| CACCCTGA | -0.161 |
| GACAGGAA | 0.00248 |
| GATGGCCA | 0.0224 |
| ACTCCCAC | -0.14 |

| Sequence | PBM E-score |
| --- | --- |
| TGATACAA | 0.0618 |
| GTGCGTTA | 0.0527 |
| CGACCTGC | -0.144 |
| GTCAACGA | 0.0133 |
| CAGTGTGA | 0.128 |
| CGATGTGC | -0.125 |
| AGTATCCA | -0.0426 |
| ATCAAGAA | 0.237 |
| AAGATGAA | 0.0724 |
| ACCCCTAT | 0.138 |
| ATGCCTAG | -0.173 |
| CAACCTCC | -0.104 |
| TAACGCCA | -0.0425 |
| TGATTACA | 0.301 |
| AGCTACTG | 0.037 |
| CGGTCGCC | -0.167 |
| CTACACCC | -0.148 |
| GCGGCCAC | -0.282 |
| TCGCACCA | 0.0804 |
| GAGATTAC | 0.249 |
| CGCACGGA | 0.0301 |
| TAGCTTGA | -0.111 |
| CCCTCGCG | -0.106 |
| TAGTGCGA | 0.0454 |
| ATAATTGA | 0.228 |

| Sequence | PBM E-score |
| --- | --- |
| GACGAAGA | 0.0861 |
| CGTGTAAC | -0.00566 |
| ATCCCTCC | -0.198 |
| CGGTATCC | 0.00257 |
| TTACCCAA | 0.104 |
| ACCACACT | -0.0125 |
| ATAAATAT | 0.226 |
| CTGAGGGC | -0.26 |
| ATAGGAGG | -0.199 |
| TGGAATAA | 0.167 |
| AGTGAGAA | 0.0991 |
| AGTACCAT | 0.0488 |
| GCTCGCTA | -0.0193 |
| AATTCACT | 0.0517 |
| AGCGCGCG | 0.149 |
| AAACCTCG | -0.0823 |
| ACAGTCCT | -0.0817 |
| ATCCTCAC | 0.0542 |
| ATTGAAGA | 0.0647 |
| ATTATGCC | 0.15 |
| CAGACATG | -0.119 |
| AGCTACCC | -0.0945 |
| CGACCGTC | -0.227 |
| ACAACCGA | 0.214 |
| AATTTTTC | 0.057 |

5 records picked at random from the list so far:

| Sequence | PBM E-score |
| --- | --- |
| TTACCCAA | 0.104 |
| ATAGGAGG | -0.199 |
| CGGTATCC | 0.00257 |
| GACGAAGA | 0.0861 |
| CGTGTAAC | -0.00566 |

The listing continues:

| Sequence | PBM E-score |
| --- | --- |
| CGCACTCC | -0.161 |
| ACCCGAAT | 0.0626 |
| ATCTAAAA | 0.058 |
| CTGATAAC | -0.054 |
| AACGGACA | 0.0977 |
| CCTAATGC | -0.164 |
| ACGGAGCC | -0.257 |
| AGGCGTAC | -0.209 |
| ACTGACTG | -0.104 |
| TAATACTA | 0.372 |
| ATCCGCAC | 0.135 |
| CACAATCA | 0.0681 |
| GGATACAC | 0.0415 |
| ATCTTGCC | 0.00777 |
| AGACGCAT | 0.0124 |
| CCATAAAG | -0.0414 |
| GACTTAGC | -0.206 |
| ACTTGTAG | -0.0604 |
| ACAGTGCC | -0.026 |
| ACCTCGGC | 0.136 |
| TCCTCGAA | 0.043 |
| GAAAATTC | 0.179 |
| CGTAAGGC | -0.0166 |
| TCCCCGGA | 0.028 |
| GAACCGCC | -0.211 |

Shown tab-delimited: entries from further up.
Sequence	PBM E-score
CCTAATGC	-0.164
ACGGAGCC	-0.257

Carrying on:

| Sequence | PBM E-score |
| --- | --- |
| CTAGTTTC | 0.147 |
| CAGGGGAA | -0.0178 |
| CGTTCGCC | -0.133 |
| ACCATAGA | 0.0505 |
| CTCATCGC | 0.0159 |
| CGTCGATC | 0.15 |
| GTGCATGA | -0.043 |
| CTAACAAA | 0.0857 |
| TACACACA | 0.0853 |
| AACCAGTA | -0.0131 |
| AAGTCTTA | 0.00355 |
| GTAACAAC | -0.021 |
| GCTAACAA | -0.0669 |
| GGCGTGCA | -0.216 |
| AAACTGAT | 0.0919 |
| CTCAGTTC | -0.0985 |
| ATAATGAG | 0.149 |
| CACACCTG | -0.174 |
| GCCTACCA | -0.102 |
| AGGCACGG | -0.0931 |
| CCATGCTA | -0.21 |
| ATCTGTCG | 0.109 |
